For 18 molecules, T/C and survivor count results are on record in PubChem BioAssay AID306 (DTP/NCI, 2004).

The list shows only some results of the screen, not a fair sample: it is rich in T/C values a quarter to a half above the control, in often repeated tests (any T/C) and in doses without a T/C. Further doses and runs are listed elsewhere. T/C: endpoint of the treated group in % of that of the vehicle group. Some entries give survivors of the animals treated and no T/C: the source holds a T/C of zero for them, seemingly a mark for toxic or unscored doses. Some survivor counts are full or nearly so, which does not show that the dose was tolerated: the source hardly ever lists a survival T/C far under the control, and the zero likely stands for such cases as well. Survivors were counted at the toxicity check, usually on the fifth day, unless a day is given; later deaths do not show. Schedules are NCI's codes, taken here to give the interval after Q, in days (D) or hours (H), and the number of doses after X. Some schedules carry Z or #; the key to these is not given. Where survival is the endpoint, this PubChem deposit counts one and a half times the control or more as active, and values a quarter to a half above the control carry no call in these data; other NCI protocols may use other cut-offs. Some entries hold several experiments; the values are given in rising order. Some T/C values carry the count of animals alive at the toxicity check (mostly the fifth day); without a count, all were alive then.

For this assay, the system named is BDF1 mice, L1210 Methyl-GAG-resistant leukemia, survival T/C. As to the kind of experiment: NCI In Vivo Anticancer Drug Screen. Data for tumor model L1210 Leukemia resistant to Methyl-GAG; NSC 32946 (subcutaneous) in B6D2F1 (BDF1) mice. As to conditions: T/C endpoint: mean survival time, higher T/C = longer survival. The procedure:
The antitumor activity of compounds was measured in mice bearing transplantable tumors. Survival or tumor size were measured and the results are expressed as the measurement made in the treated group (T) divided by the measurement made in the vehicle treated control group (C). The tumor model used in this assay is L1210 Leukemia resistant to Methyl-GAG; NSC 32946 (subcutaneous) in B6D2F1 (BDF1) mice

Setting [1] is: dose: 100.0 mg/kg/injection, schedule: Q01DX Z (ip), vehicle: water.
The mark [2] stands for this setting: dose: 400.0 mg/kg/injection, schedule: Q01DX Z (ip), vehicle: carboxymethylcellulose (CMC).
[3] abbreviates: dose: 62.5 mg/kg/injection, schedule: Q01DX Z (ip), vehicle: carboxymethylcellulose (CMC).
[4] abbreviates: dose: 1.0 mg/kg/injection, schedule: Q01DX Z (ip), vehicle: carboxymethylcellulose (CMC).

For the molecule `C[C@@H]1C[C@@H]([C@H](O)CC2CC(=O)NC(=O)C2)C(=O)[C@@H](C)C1`, the T/C is 141 % of control (dose: 25.0 mg/kg/injection, schedule: Q01DX Z (ip), vehicle: water); 126 and 136 % of control (dose: 50.0 mg/kg/injection, schedule: Q01DX Z (ip), vehicle: water). Moreover, the survivor count is reported as 5 of 6 under setting [1] and 1 of 6 (dose: 200.0 mg/kg/injection, schedule: Q01DX Z (ip), vehicle: water).

Consider `O=C(Nc1ccc(C2=NCCN2)cc1)c1cccc(C(=O)Nc2ccc(C3=NCCN3)cc2)c1`, for which the T/C is 142 % of control (dose: 4.7 mg/kg/injection, schedule: Q01DX Z (ip), vehicle: water); 145 % of control (dose: 9.4 mg/kg/injection, schedule: Q01DX Z (ip), vehicle: water); 125 % of control [5 of 6 alive] (dose: 300.0 mg/kg/injection, schedule: Q01DX Z (ip), vehicle: carboxymethylcellulose (CMC)). Moreover, the survivor count runs as follows: under setting [1], 3 of 6; (dose: 600.0 mg/kg/injection, schedule: Q01DX Z (ip), vehicle: water) 1 of 6.

For `N#CCSc1ncnc2nc[nH]c12`, the survivor count (dose: 100.0 mg/kg/injection, schedule: Q01DX Z (ip), vehicle: carboxymethylcellulose (CMC)) is 3 of 6.

In the case of `CS(=O)(=O)OCCCl`, the survivor count is listed as 6 of 6 (dose: 200.0 mg/kg/injection, schedule: Q01DX Z (ip), vehicle: carboxymethylcellulose (CMC)) and 6 of 6 under setting [2].

As to `OCC1OC(n2cnc3c(=S)nc[nH]c32)C(O)C1O` (stereo unspecified), the T/C runs as follows: under setting [3], 144 % of control; (dose: 125.0 mg/kg/injection, schedule: Q01DX Z (ip), vehicle: carboxymethylcellulose (CMC)) 139 % of control; (dose: 250.0 mg/kg/injection, schedule: Q01DX Z (ip), vehicle: carboxymethylcellulose (CMC)) 139 % of control. The survivor count by setting is: (dose: 500.0 mg/kg/injection, schedule: Q01DX Z (ip), vehicle: carboxymethylcellulose (CMC)) 5 of 6; (dose: 1000.0 mg/kg/injection, schedule: Q01DX Z (ip), vehicle: carboxymethylcellulose (CMC)) 6 of 6.

For `CCC(=O)O[C@H]1CC[C@H]2[C@@H]3CCC4=CC(=O)CC[C@]4(C)[C@H]3CC[C@]12C`, the survivor count (dose: 37.5 mg/kg/injection, schedule: Q01DX Z (sc), vehicle: steroid suspending solution) is 6 of 6; the survivor count (dose: 75.0 mg/kg/injection, schedule: Q01DX Z (sc), vehicle: steroid suspending solution) is listed as 6 of 6; the survivor count (dose: 150.0 mg/kg/injection, schedule: Q01DX Z (sc), vehicle: steroid suspending solution) is 6 of 6; the survivor count (dose: 300.0 mg/kg/injection, schedule: Q01DX Z (sc), vehicle: steroid suspending solution) was 6 of 6.

For the molecule `Nc1nc(SCc2ccccc2)c2[nH]cnc2n1`, the T/C (dose: 25.0 mg/kg/injection, schedule: Q01DX Z (ip), vehicle: carboxymethylcellulose (CMC)) was 129 % of control. Besides, the survivor count (dose: 50.0 mg/kg/injection, schedule: Q01DX Z (ip), vehicle: carboxymethylcellulose (CMC)) was 6 of 6.

For `CC[C@H](c1ccc(O)cc1)[C@@H](CC)c1ccc(O)cc1`, the survivor count reads like this: (dose: 62.5 mg/kg/injection, schedule: Q01DX Z (sc), vehicle: steroid suspending solution) 3 of 6; (dose: 125.0 mg/kg/injection, schedule: Q01DX Z (sc), vehicle: steroid suspending solution) 0 of 6; (dose: 250.0 mg/kg/injection, schedule: Q01DX Z (sc), vehicle: steroid suspending solution) 0 of 6; (dose: 500.0 mg/kg/injection, schedule: Q01DX Z (sc), vehicle: steroid suspending solution) 0 of 6.

Turning to `C[C@]12CC[C@H](OC3OC(CO)C(O)C(O)C3O)C[C@H]1CC[C@@H]1[C@@H]2CC[C@]2(C)[C@@H](C3=CCOC3=O)CC[C@]12O` (stereo partly specified), the survivor count (dose: 8.0 mg/kg/injection, schedule: Q01DX Z (ip), vehicle: saline) was 3 of 6.

As for `O=C(Nc1ccc(C2=NCCCN2)cc1)c1ccc(NC(=O)c2ccc(C3=NCCCN3)cc2)cc1`, the T/C (dose: 7.8 mg/kg/injection, schedule: Q01DX Z (ip), vehicle: carboxymethylcellulose (CMC)) was 132 and 144 % of control. In addition, the survivor count was 5 of 6 (dose: 31.3 mg/kg/injection, schedule: Q01DX Z (ip), vehicle: carboxymethylcellulose (CMC)) and 0 of 6 under setting [3].

On to `S=c1nc[nH]c2nc[nH]c12`, for which the T/C runs as follows: (dose: 12.5 mg/kg/injection, schedule: Q01DX Z (ip), vehicle: other) 145 % of control; (dose: 18.75 mg/kg/injection, schedule: Q01DX Z (ip), vehicle: other) 128 % of control; (dose: 25.0 mg/kg/injection, schedule: Q01DX Z (ip), vehicle: other) 125 and 133 % of control; (dose: 100.0 mg/kg/injection, schedule: Q01DX Z (ip), vehicle: other) 128 % of control; (dose: 150.0 mg/kg/injection, schedule: Q01DX Z (ip), vehicle: other) 126 % of control.

As for `c1ccc(CNc2ncnc3[nH]ncc23)cc1`, the survivor count is recorded as 0 of 6 (dose: 64.0 mg/kg/injection, schedule: Q01DX Z (ip), vehicle: carboxymethylcellulose (CMC)) and 0 of 6 (dose: 128.0 mg/kg/injection, schedule: Q01DX Z (ip), vehicle: carboxymethylcellulose (CMC)).

On to `CCCCCCCCCCCCNCCCCCCCCCCCC`, for which the survivor count (dose: 60.0 mg/kg/injection, schedule: Q01DX Z (ip), vehicle: carboxymethylcellulose (CMC)) was 5 of 6.

Consider `CSc1ncnc2nc[nH]c12`, for which the survivor count under setting [2] is listed as 1 of 6.

As for `O[C@H](CN1CC1)[C@@H](O)CN1CC1`, the T/C runs as follows: (dose: 0.25 mg/kg/injection, schedule: Q01DX Z (ip), vehicle: carboxymethylcellulose (CMC)) 128 % of control; (dose: 250.0 micrograms/kg/injection, schedule: Q01DX Z (ip), vehicle: carboxymethylcellulose (CMC)) 142 % of control; (dose: 500.0 micrograms/kg/injection, schedule: Q01DX Z (ip), vehicle: carboxymethylcellulose (CMC)) 140 % of control. The survivor count is given as 6 of 6 under setting [4]; 5 of 6 (dose: 2.0 mg/kg/injection, schedule: Q01DX Z (ip), vehicle: carboxymethylcellulose (CMC)); 1 of 6 (dose: 4.0 mg/kg/injection, schedule: Q01DX Z (ip), vehicle: carboxymethylcellulose (CMC)).

Consider `CCN(CC)c1ccc2cc3ccc(=[N+](CC)CC)cc-3oc2c1`, for which the survivor count (dose: 10.0 mg/kg/injection, schedule: Q01DX Z (ip), vehicle: carboxymethylcellulose (CMC)) is listed as 1 of 6.

Take `Nc1nc(=S)c2[nH]cnc2[nH]1`: the T/C under setting [4] is 134 % of control. Besides, the survivor count (dose: 8.0 mg/kg/injection, schedule: Q01DX Z (ip), vehicle: carboxymethylcellulose (CMC)) is recorded as 6 of 6.

For the molecule `CC(=O)Nc1ccc2nc3ccc(NC(C)=O)cc3[n+](-c3ccccc3)c2c1`, the T/C under setting [2] was 129 % of control. Also, the survivor count (dose: 800.0 mg/kg/injection, schedule: Q01DX Z (ip), vehicle: carboxymethylcellulose (CMC)) is 2 of 6.
